Laboratory results as given in paper PMC11653673.
No constants are given. Whether binding was seen depends on the method and setting. For part of these data: In cells and extracts the contact can be indirect. Some entries that bind do so weakly or less than the wild type. Blank lines part the entries; values can stand above or below the molecule they belong to.

Amino acid sequences for entries named in this document (tags omitted). Residues count along the entry.
UniProt Q8BMS1, residues 37-763: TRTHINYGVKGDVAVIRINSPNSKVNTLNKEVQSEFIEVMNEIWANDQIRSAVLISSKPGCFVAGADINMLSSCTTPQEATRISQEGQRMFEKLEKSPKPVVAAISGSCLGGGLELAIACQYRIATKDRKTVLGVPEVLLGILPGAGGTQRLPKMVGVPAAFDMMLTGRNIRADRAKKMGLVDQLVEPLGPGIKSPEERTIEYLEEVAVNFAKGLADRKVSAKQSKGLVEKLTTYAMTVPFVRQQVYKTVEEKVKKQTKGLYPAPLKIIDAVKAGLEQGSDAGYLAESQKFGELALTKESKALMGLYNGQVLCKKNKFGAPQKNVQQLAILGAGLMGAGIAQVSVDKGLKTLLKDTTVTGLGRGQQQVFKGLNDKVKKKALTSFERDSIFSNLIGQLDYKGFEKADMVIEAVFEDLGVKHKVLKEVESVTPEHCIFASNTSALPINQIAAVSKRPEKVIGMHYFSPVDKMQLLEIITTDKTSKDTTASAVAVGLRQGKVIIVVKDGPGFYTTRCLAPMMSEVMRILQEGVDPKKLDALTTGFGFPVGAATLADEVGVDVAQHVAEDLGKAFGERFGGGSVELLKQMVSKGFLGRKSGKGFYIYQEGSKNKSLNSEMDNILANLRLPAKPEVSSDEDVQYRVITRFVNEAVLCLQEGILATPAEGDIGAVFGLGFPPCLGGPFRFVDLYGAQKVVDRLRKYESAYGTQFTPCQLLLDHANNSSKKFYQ
UniProt P03911: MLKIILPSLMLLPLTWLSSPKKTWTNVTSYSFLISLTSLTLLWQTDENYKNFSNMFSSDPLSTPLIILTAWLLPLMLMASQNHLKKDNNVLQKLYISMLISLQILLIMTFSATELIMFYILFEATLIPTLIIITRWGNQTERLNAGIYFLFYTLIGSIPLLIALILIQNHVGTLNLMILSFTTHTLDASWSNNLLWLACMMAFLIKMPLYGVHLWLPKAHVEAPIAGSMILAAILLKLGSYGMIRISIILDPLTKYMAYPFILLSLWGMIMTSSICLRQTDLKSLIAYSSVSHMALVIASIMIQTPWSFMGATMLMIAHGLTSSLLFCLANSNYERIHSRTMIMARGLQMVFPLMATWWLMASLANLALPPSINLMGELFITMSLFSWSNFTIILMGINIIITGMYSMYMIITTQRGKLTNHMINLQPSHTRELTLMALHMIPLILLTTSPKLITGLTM
UniProt Q03265, residues 44-553: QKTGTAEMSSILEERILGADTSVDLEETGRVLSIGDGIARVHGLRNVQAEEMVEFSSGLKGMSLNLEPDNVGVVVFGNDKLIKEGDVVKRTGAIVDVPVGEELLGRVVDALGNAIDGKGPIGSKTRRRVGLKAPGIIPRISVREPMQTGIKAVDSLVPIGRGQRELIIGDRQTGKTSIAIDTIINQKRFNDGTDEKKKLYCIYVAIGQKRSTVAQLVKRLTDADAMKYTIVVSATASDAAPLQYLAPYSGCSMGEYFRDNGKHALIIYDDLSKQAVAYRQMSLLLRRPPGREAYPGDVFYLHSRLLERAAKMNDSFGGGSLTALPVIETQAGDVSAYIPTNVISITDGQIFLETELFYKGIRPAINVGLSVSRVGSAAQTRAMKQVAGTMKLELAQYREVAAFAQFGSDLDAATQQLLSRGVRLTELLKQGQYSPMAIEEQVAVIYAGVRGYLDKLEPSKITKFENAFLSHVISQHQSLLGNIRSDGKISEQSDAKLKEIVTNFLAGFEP

Columns and labels:
[1] = molecular target: hydroxyacyl-CoA dehydrogenase trifunctional multienzyme complex subunit alpha (mouse (endogenous in A9, 4A and 4AR6 cells)) (UniProt Q8BMS1); test: co-IP; purified mitochondria of 4AR6 cells, 1% digitonin; anti-HADHA antibody overnight at 4 °C, protein G agarose beads; western blot
[2] = molecular target: hydroxyacyl-CoA dehydrogenase trifunctional multienzyme complex subunit alpha (mouse (endogenous in A9, 4A and 4AR6 cells)) (UniProt Q8BMS1); test: co-IP; purified mitochondria of 4A cells (control: no complete complex I, no supercomplexes), 1% digitonin; anti-HADHA antibody overnight at 4 °C, protein G agarose beads; western blot
[3] = molecular target: hydroxyacyl-CoA dehydrogenase trifunctional multienzyme complex subunit alpha (mouse (endogenous in A9, 4A and 4AR6 cells)) (UniProt Q8BMS1); test: co-IP; purified mitochondria of 4AR6 cells, 1% digitonin; anti-HADHA antibody overnight at 4 °C, protein G agarose beads; western blot; remark: listed apart in the source
[4] = molecular target: hydroxyacyl-CoA dehydrogenase trifunctional multienzyme complex subunit alpha (mouse (endogenous in A9, 4A and 4AR6 cells)) (UniProt Q8BMS1); test: co-IP; purified mitochondria of 4A cells (control: no complete complex I, no supercomplexes), 1% digitonin; anti-HADHA antibody overnight at 4 °C, protein G agarose beads; western blot; remark: listed apart in the source
[5] = molecular target: hydroxyacyl-CoA dehydrogenase trifunctional multienzyme complex subunit alpha (mouse (endogenous in A9, 4A and 4AR6 cells)) (UniProt Q8BMS1); test: native gel or EMSA; BN-PAGE (comigration) of digitonin-solubilised mitochondria of A9 and 4AR6 cells, western blot

binding [1]: binds
Molecule: complex I membrane arm subunit ND4 (from UniProt P03911 1-459)
binding [2]: binds

binding [1]: no binding
Molecule: complex V subunit ATP5A (from UniProt Q03265 44-553)
binding [2]: no binding

Further lines, the molecule ahead of its results:

B1: complex I membrane arm subunit ND2 (protein, UniProt P03893 1-345)
chain: MNPITLAIIYFTIFLGPVITMSSTNLMLMWVGLEFSLLAIIPMLINKKNPRSTEAATKYFVTQATASMIILLAIVLNYKQLGTWMFQQQTNGLILNMTLMALSMKLGLAPFHFWLPEVTQGIPLHMGLILLTWQKIAPLSILIQIYPLLNSTIILMLAITSIFMGAWGGLNQTQMRKIMAYSSIAHMGWMLAILPYNPSLTLLNLMIYIILTAPMFMALMLNNSMTINSISLLWNKTPAMLTMISLMLLSLGGLPPLTGFLPKWIIITELMKNNCLIMATLMAMMALLNLFFYTRLIYSTSLTMFPTNNNSKMMTHQTKTKPNLMFSTLAIMSTMTLPLAPQLIT
binding [3]: binds | binding [4]: binds

B2: mitochondrial trifunctional protein subunit beta (protein, UniProt Q99JY0 35-475)
chain: SAPAVQTKSKKTLAKPNMKNIVVVEGVRIPFLLSGTSYKDLMPHDLARAALSGLLHRTNIPKDVVDYIIFGTVIQEVKTSNVAREAALGAGFSDKTPAHTVTMACISSNQAMTTAVGLIASGQCDVVVAGGVELMSDVPIRHSRNMRKMMLDLNKAKTLGQRLSLLSKFRLNFLSPELPAVAEFSTNETMGHSADRLAAAFAVSRMEQDEYALRSHSLAKKAQDEGHLSDIVPFKVPGKDTVTKDNGIRPSSLEQMAKLKPAFIKPYGTVTAANSSFLTDGASAMLIMSEDRALAMGYKPKAYLRDFIYVSQDPKDQLLLGPTYATPKVLEKAGLTMNDIDAFEFHEAFSGQILANFKAMDSDWFAQNYMGRKTKVGSPPLEKFNIWGGSLSLGHPFGATGCRLVMAAANRLRKDGGQYALVAACAAGGQGHAMIVEAYPK
binding [5]: binds | binding [3]: binds | binding [4]: binds
